No constants are given. Whether binding was seen depends on the method and setting. Binding seen in cells or lysates may run through a third protein. Some results given as binding are weak or reduced against the parent protein; the word gives no strength.
Molecular target: STUB1 (STIP1 homology and U-box-containing protein 1), endogenous in HL-1 cells (mouse (endogenous in HL-1)) (UniProt Q9WUD1)
Assay: co-IP; endogenous proteins; AC16 and HL-1 lysates in IP lysis buffer, pre-cleaned with protein A/G beads at 4 °C for 4 h, immunoprecipitated with protein A/G beads conjugated with anti-STUB1 or anti-IgG at 4 °C overnight; Western blotting

By UniProt entry, the sequences of proteins in these tests, tags left out.
UniProt Q9WUD1: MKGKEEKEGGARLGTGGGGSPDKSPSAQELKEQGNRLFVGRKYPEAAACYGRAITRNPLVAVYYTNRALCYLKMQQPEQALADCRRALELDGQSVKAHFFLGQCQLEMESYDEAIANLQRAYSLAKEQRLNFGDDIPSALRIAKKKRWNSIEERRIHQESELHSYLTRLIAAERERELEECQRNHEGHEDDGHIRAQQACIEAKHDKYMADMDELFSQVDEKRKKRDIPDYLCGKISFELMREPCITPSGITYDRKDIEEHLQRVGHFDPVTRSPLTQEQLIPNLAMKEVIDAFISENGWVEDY

B1: LATS2 (large tumor suppressor kinase 2), endogenous in HL-1 cells (protein, UniProt Q7TSJ6 1-1042)
chain: MRPKTFPATTYSGNSRQRLQEIREGLKQPSKASTQGLLVGPNSDTSLDAKVLGSKDASRQQQMRATPKFGPYQKALREIRYSLLPFANESGTSAAAEVNRQMLQELVNAGCDQEMAGRALKQTGSRSIEAALEYISKMGYLDPRNEQIVRVIKQTSPGKGLAPTPVTRRPSFEGTGEALPSYHQLGGANYEGPAALEEMPRQYLDFLFPGAGAGTHGAQAHQHPPKGYSTAVEPSAHFPGTHYGRGHLLSEQPGYGVQRSSSFQNKTPPDAYSSMAKAQGGPPASLTFPAHAGLYTASHHKPAATPPGAHPLHVLGTRGPTFTGESSAQAVLAPSRNSLNADLYELGSTVPWSAAPLARRDSLQKQGLEASRPHVAFRAGPSRTNSFNNPQPEPSLPAPNTVTAVTAAHILHPVKSVRVLRPEPQTAVGPSHPAWVAAPTAPATESLETKEGSAGPHPLDVDYGGSERRCPPPPYPKHLLLPSKSEQYSVDLDSLCTSVQQSLRGGTEQDRSDKSHKGAKGDKAGRDKKQIQTSPVPVRKNSRDEEKRESRIKSYSPYAFKFFMEQHVENVIKTYQQKVSRRLQLEQEMAKAGLCEAEQEQMRKILYQKESNYNRLKRAKMDKSMFVKIKTLGIGAFGEVCLACKLDTHALYAMKTLRKKDVLNRNQVAHVKAERDILAEADNEWVVKLYYSFQDKDSLYFVMDYIPGGDMMSLLIRMEVFPEHLARFYIAELTLAIESVHKMGFIHRDIKPDNILIDLDGHIKLTDFGLCTGFRWTHNSKYYQKGNHMRQDSMEPGDLWDDVSNCRCGDRLKTLEQRAQKQHQRCLAHSLVGTPNYIAPEVLLRKGYTQLCDWWSVGVILFEMLVGQPPFLAPTPTETQLKVINWESTLHIPTQVRLSAEARDLITKLCCAADCRLGRDGADDLKAHPFFNTIDFSRDIRKQPAPYVPTISHPMDTSNFDPVDEESPWHEASGESAKAWDTLASPSSKHPEHAFYEFTFRRFFDDNGYPFRCPKPSEPAESADPGDADLEGAAEGCQPVYV
binding: binds

— publication PMC10985082
